PubChem BioAssay AID743454, Peter MacCallum Cancer Centre, 2014
This is a random part of about 18,000 reagents. 450 of them (2.5%) were called active. 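Single biological run; no consistent viability z cut-off exists, so the class columns, not z-scores, define the calls.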 A number with no mark means an inactive call.

- Test: 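Knock-downs lowering viability or raising caspase 3/7 activity in vorinostat-treated resistant cells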 (primary screen)
- System: human HCT116-VR colon cancer cells, selected for vorinostat resistance
- Reagent: siRNA pool against human genes, 40 nM siRNA pool
- Timing: vorinostat for 24 h, read-out about 72 h after transfection
- Treatment: vorinostat at 2.5 µM final
- Measured: 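Cell viability by CellTiter-Fluor and caspase 3/7 activity by luminescence, each scaled to mock wells per plate, duplicates averaged, then robust z-scored over all plates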
- Scale: viability robust z-score: higher = more viable cells than screen typical; caspase robust z-score: higher = more caspase 3/7 activity than screen typical
- Active means: 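a knock-down is a hit when classed RV1 or RV2 for lowered viability, or CA1 or CA2 for caspase activation; those lethal without drug were dropped; hits were retested singly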

| target | viability hit class | caspase hit class | viability robust z-score | caspase robust z-score |
| --- | --- | --- | --- | --- |
| LIG3 (DNA ligase 3) | no change | no change | 0.12 | -1.08 |
| EZH2 (enhancer of zeste 2 polycomb repressive complex 2 subunit) | no change | no change | 0.09 | 1.54 |
| SHISA6 (shisa family member 6) | no change | no change | 0.86 | -0.34 |
| IL36RN (interleukin 36 receptor antagonist) | no change | no change | 1.16 | 1.98 |
| PABIR3 (PABIR family member 3) | no change | no change | 1.05 | -0.28 |
| CD248 (CD248 molecule) | no change | no change | -0.22 | 1.06 |
| EXO1 (exonuclease 1) | no change | no change | 0.48 | -0.66 |
| NPC1 (NPC intracellular cholesterol transporter 1) | no change | no change | 1.45 | -0.6 |
| THRSP (thyroid hormone responsive) | no change | no change | -0.92 | 4.27 |
| ACADVL (acyl-CoA dehydrogenase very long chain) | no change | no change | 0.64 | 0.25 |
| PGLYRP4 (peptidoglycan recognition protein 4) | no change | no change | -0.02 | -0.73 |
| ADCY8 (adenylate cyclase 8) | no change | no change | -0.46 | -0.77 |
| SPON2 (spondin 2) | no change | no change | -0.16 | 1.47 |
| TNS3 (tensin 3) | no change | no change | -0.25 | -0.92 |
| WFDC10B (WAP four-disulfide core domain 10B) | no change | no change | -1.48 | 0.06 |
| MSLNL (mesothelin like) | no change | no change | 0.62 | 1.02 |
| CRMA (cardiomyocyte maturation associated lncRNA) | no change | no change | 0 | -0.76 |
| GSTM1 (glutathione S-transferase mu 1) | no change | no change | -0.43 | -0.02 |
| SLC5A6 | no change | no change | -0.56 | 0.72 |
| E2F2 (E2F transcription factor 2) | no change (active) | CA1 (caspase activation) | 0.1 | 5.7 |
| PPP1R27 (protein phosphatase 1 regulatory subunit 27) | no change | no change | 0.66 | -0.35 |
| GTF2H3 (general transcription factor IIH subunit 3) | no change | no change | -0.1 | 2.84 |
| SGPP2 (sphingosine-1-phosphate phosphatase 2) | no change | no change | 0.1 | -0.6 |
| ATP13A2 (ATPase cation transporting 13A2) | no change | no change | 0.72 | -0.15 |
| ADAMTS12 (ADAM metallopeptidase with thrombospondin type 1 motif 12) | no change | no change | -0.16 | -0.6 |
| ACVR2B (activin A receptor type 2B) | no change | no change | -2.6 | 4.91 |
| DEFB112 (defensin beta 112) | no change | no change | -0.43 | 0.66 |
| GEMIN2 (gem nuclear organelle associated protein 2) | no change | no change | 0.98 | 0.22 |
| PHF10 (PHD finger protein 10) | no change | no change | -0.73 | -0.08 |
| GAS6 (growth arrest specific 6) | no change | no change | -1.94 | 1.44 |
| INF2 (inverted formin 2) | no change | no change | -1.87 | 0.11 |
| BCL2L1 (BCL2 like 1) | no change | no change | -3.09 | 3.88 |
| HSFX1 (heat shock transcription factor family, X-linked 1) | no change | no change | -1.5 | -0.36 |
| BRI3 (brain protein I3) | no change | no change | -0.3 | 2.93 |
| CD86 (CD86 molecule) | no change | no change | -0.12 | -0.83 |
| MAD1L1 (mitotic arrest deficient 1 like 1) | no change | no change | -0.16 | -1.01 |
| CALR3 (calreticulin 3) | no change | no change | -1.12 | 4.82 |
| ADH1B (alcohol dehydrogenase 1B (class I), beta polypeptide) | no change | no change | 1.71 | -0.14 |
| ZC2HC1A (zinc finger C2HC-type containing 1A) | no change | no change | 0.15 | -0.7 |
| TECPR1 (tectonin beta-propeller repeat containing 1) | no change | no change | -0.64 | 0.24 |
| CALML4 (calmodulin like 4) | no change | no change | 0.46 | -0.64 |
| TSPAN15 (tetraspanin 15) | no change | no change | -0.66 | -0.82 |
| GRAP2 (GRB2 related adaptor protein 2) | no change | no change | 0.86 | -0.36 |
| STYK1 (STY kinase 1) | no change | no change | -1.11 | 1.08 |
| SLC9B1 | no change | no change | -0.08 | -0.42 |
| ITGB2 (integrin subunit beta 2) | no change | no change | -0.72 | 1.05 |
| LMAN2 (lectin, mannose binding 2) | no change | no change | -0.24 | 0.98 |
| MPV17L2 (MPV17 mitochondrial inner membrane protein like 2) | no change | no change | -0.26 | 0.53 |
| OR2C1 (olfactory receptor family 2 subfamily C member 1) | no change | no change | 0.5 | -0.09 |
| SLC44A1 | no change | no change | -0.01 | 1.48 |
| ZNF3 (zinc finger protein 3) | no change | no change | -0.6 | -0.8 |
| ALDH18A1 (aldehyde dehydrogenase 18 family member A1) | no change | no change | 0.01 | -0.31 |
| LIMK2 (LIM domain kinase 2) | no change | no change | 0.38 | -0.76 |
| MYOZ3 (myozenin 3) | no change | no change | 1.27 | 0.86 |
| MTIF2 (mitochondrial translational initiation factor 2) | no change | no change | 1.57 | 0.62 |
| NLGN3 (neuroligin 3) | no change | no change | -0.32 | -1.13 |
| OR51I1 (olfactory receptor family 51 subfamily I member 1) | no change | no change | 0.22 | 0.38 |
